Experimental data reported in PubChem BioAssay AID504648 (National Center for Advancing Translational Sciences (NCATS), 2011).
The whole screen tested about 390,000 compounds, of which about 610 (0.16%) were called active. Inconclusive means that the source gave no clear call. Such entries were picked first, then a sample of the others. Calls come from the whole dose curve; as a rule, active = well fitted inhibition curve with a large enough effect; inconclusive = small, poorly fitted or top-dose-only effect, or effect the other way, or another doubt; inactive = no such curve, though single readings can be large or run the other way. Where the call is inconclusive, the potency comes from a doubtful curve fit.

experiment: Nrf2 qHTS screen for inhibitors: counterscreen for cytotoxicity; details: A549 ARE-Fluc cells, CellTiter-Fluor viability, 18-24 h; activity change, negative = cytotoxicity: at 46 µM (top of the series)
Procedure, shortened: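 A549 ARE_Fluc cells in 5% FBS OPTI-MEM were exposed to compounds in concentration-response for 18-24 h at 37 deg C. Viability was read by CellTiter-Fluor fluorescence (Ex 405/Em 525) after 30 min, before the luciferase read.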
% is set by controls: 0 for no effect and ±100 for the full control effect; potency is the fitted concentration of half-maximal effect.

SMILES | activity change, negative = cytotoxicity | Potency
CC1(c2ccc(Cl)cc2)NC(=O)N(CC(=O)N2CCc3ccccc32)C1=O (centres undefined) | inactive: 1.14% | –
CCOC(=O)c1ccc(NC(=O)CC2C(=O)N(c3ccccc3)C(=O)N2Cc2ccc(C)cc2)cc1 (centres undefined) | inactive: -11.6% | –
COC(=O)/C=C\C(C#N)(C#N)N=Cc1ccc(OC)cc1 | – | inconclusive: 29.1 µM [falling, single point]
Nc1ncnc2c(C3OC(CO)C(O)C3O)scc12 (centres undefined) | – | inconclusive: 0.82 µM [falling, full curve]
CCOc1ccccc1-c1noc(CSc2nnc(-c3ccccc3)n2-c2cccc(C)c2)n1 | – | inconclusive: 29.1 µM [falling, single point]
CN1CCCN(C(c2ccccc2)c2ccc(Cl)cc2)CC1 (centres undefined) | – | inconclusive: 23.1 µM [falling, partial curve, poor fit]
Cc1ccc(C(=O)C(C(=O)/C=C/c2ccccc2)=C2SCCCS2)cc1 | – | inconclusive: 29.1 µM [falling, single point]
Cc1nc(N/N=C/c2ccc(O)cc2)c2cnn(-c3ccccc3)c2n1 | inactive: -0.616% | –
CCc1ccc(Nc2n[n+](-c3ccccc3)c(-c3c(Cl)cccc3Cl)s2)cc1 | – | inconclusive: 29.1 µM [falling, single point]
CC(=O)NC(c1ccccc1)c1cc([N+](=O)[O-])c2cccnc2c1O (centres undefined) | – | inconclusive: 25.9 µM [falling, single point]
C=CC[C@@H](CC(=O)N(CCO)Cc1ccccc1)C(=O)N[C@H](COC(=O)[C@@H](CC=C)CC(=O)OC(C)(C)C)Cc1c[nH]c2ccccc12 | – | inconclusive: 29.1 µM [falling, single point]
CC(=O)N1CCC(=NNS(=O)(=O)c2ccc(C)c([N+](=O)[O-])c2)CC1 | – | inconclusive: 29.1 µM [activator, partial curve, poor fit]
COCCn1c(=S)[nH]c2ccccc21 | inactive: -2.22% | –
CC(=O)N1N=C(c2ccccc2)CC1c1cn(Cc2ccccc2)c2ccccc12 (centres undefined) | – | inconclusive: 32.6 µM [falling, partial curve, poor fit]
O=C(c1ccncc1)N1N=C(c2ccc(Br)cc2)CC1c1ccccc1O (centres undefined) | – | inconclusive: 29.1 µM [falling, single point]
CCc1ccc(NC(=O)CSc2ccc(-c3cccs3)nn2)cc1 | inactive: 8.09% | –
CC1CN(C(=O)COC(=O)c2cccc(S(=O)(=O)N3CCc4ccccc43)c2)CC(C)O1 (centres undefined) | inactive: 2.34% | –
Cc1ccccc1Oc1cc(-n2ncc(Cl)c(Cl)c2=O)ncn1 | – | inconclusive: 29.1 µM [falling, single point]
CCOc1cc(Br)c(/C=C2/C(=O)N(C)C(=S)N2CC(=O)OC)cc1OC | inactive: -2.47% | –

Rewritten tab-delimited: part of the list above
SMILES	activity change, negative = cytotoxicity	Potency
CC(=O)N1CCC(=NNS(=O)(=O)c2ccc(C)c([N+](=O)[O-])c2)CC1	–	inconclusive: 29.1 µM [activator, partial curve, poor fit]
COCCn1c(=S)[nH]c2ccccc21	inactive: -2.22%	–
